The test system of this series is PNT1A cells. Description: MTT cytotoxicity assay against normal epithelial cell line PNT1A. The format is cell-based. The following applies: for Therapeutic index: Table S1, calculated as an indication of toxicity, PNT1A versus HeLa; for therapeutic index (approximate): cytotoxicity against normal epithelial cell line PNT1A. As for the experimental part:
The 3-(4,5-dimethylthiazol-2-yl)-2,5-diphenyltetrazolium bromide (MTT) assay was employed to evaluate the antiproliferative activities of the synthesized 7-deazahypoxathine analogues. The HeLa, PNT1A, or PANC-1 cell lines were assessed by trypsinizing and seeding 4 × 10^3 cells per well into 96-well plates. Synthesized compounds were dissolved in DMSO at a concentration of either 50 mM or 100 mM before cell treatment. Cells were grown for 24 h and then treated with compounds at concentrations ranging from 0.04 to 100 μM and incubated for 48 h in 200 μL media. Twenty microliters of MTT reagent in serum-free medium (5 mg/mL) was added to each well and incubated further for 2 h. Media was removed and the resulting formazan crystals were resolubilized in 200 μL of DMSO. A Thermomax Molecular Device plate reader was utilized to measure A490. Experiments were performed in quadruplicate and repeated at least twice for each compound. The control comprised of cells treated with 0.1% DMSO. One micromolar phenyl arsine oxide (PAO) was utilized as a positive killing control.

Which two values form the index is not stated here.

For the compound “6-[4-(2-Ethoxyethoxy)benzoyl]-5-(3-fluorophenyl)-2-(pent-4-yn-1-yl)-1,7-dihydro-4H-pyrrolo[2,3-d]pyrimidin-4-one [Compound 59]”, the Therapeutic index is 2.6 and the “therapeutic index (approximate)” value is recorded as roughly 2 fold. Consider `C#CCCCc1nc(=O)c2c(-c3ccccc3)c(C(=O)c3ccccc3C)[nH]c2[nH]1` [Compound 21, 6-(2-Methylbenzoyl)-2-(pent-4-yn-1-yl)-5-phenyl-1,7-dihydro-4H-pyrrolo[2,3-d]pyrimidin-4-one], for which the Therapeutic index is reported as 0.9 and the “therapeutic index (approximate)” value is listed as roughly 2 fold. As to `C#CCCCc1nc(=O)c2c(-c3ccccc3)c(C(=O)c3ccc(OCCOCC)cc3)[nH]c2[nH]1` [Compound 33, 6-[4-(2-Ethoxyethoxy)benzoyl]-2-(pent-4-yn-1-yl)-5-phenyl-1,7-dihydro-4H-pyrrolo[2,3-d]pyrimidin-4-one], the Therapeutic index is 1.6.
